# Source: article PMC7641585
# Chains of the proteins cited; added tags and fusions are not shown. Chains listed by the source or under a name are the forms on record and can include a tag or linker.
# UniProt Q924A0, whole entry: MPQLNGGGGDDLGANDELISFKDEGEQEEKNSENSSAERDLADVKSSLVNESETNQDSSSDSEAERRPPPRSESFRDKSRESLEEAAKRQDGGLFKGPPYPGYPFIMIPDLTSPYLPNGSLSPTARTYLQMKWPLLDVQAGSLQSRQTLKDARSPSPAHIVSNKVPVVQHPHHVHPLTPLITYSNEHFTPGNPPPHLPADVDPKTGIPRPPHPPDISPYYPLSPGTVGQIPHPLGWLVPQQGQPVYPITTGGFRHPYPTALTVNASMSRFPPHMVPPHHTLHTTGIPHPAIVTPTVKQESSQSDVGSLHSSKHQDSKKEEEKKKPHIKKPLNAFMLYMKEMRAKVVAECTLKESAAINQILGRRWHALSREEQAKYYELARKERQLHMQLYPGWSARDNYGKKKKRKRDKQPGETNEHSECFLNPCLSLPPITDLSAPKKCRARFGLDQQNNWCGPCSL
# Tcf4 (Tcf7l2), [Apc]ko-TOTAL liver nuclear extract + beta-catenin, [Apc]ko-TOTAL liver nuclear extract, one chain, as listed by the source, chain 2 of 2: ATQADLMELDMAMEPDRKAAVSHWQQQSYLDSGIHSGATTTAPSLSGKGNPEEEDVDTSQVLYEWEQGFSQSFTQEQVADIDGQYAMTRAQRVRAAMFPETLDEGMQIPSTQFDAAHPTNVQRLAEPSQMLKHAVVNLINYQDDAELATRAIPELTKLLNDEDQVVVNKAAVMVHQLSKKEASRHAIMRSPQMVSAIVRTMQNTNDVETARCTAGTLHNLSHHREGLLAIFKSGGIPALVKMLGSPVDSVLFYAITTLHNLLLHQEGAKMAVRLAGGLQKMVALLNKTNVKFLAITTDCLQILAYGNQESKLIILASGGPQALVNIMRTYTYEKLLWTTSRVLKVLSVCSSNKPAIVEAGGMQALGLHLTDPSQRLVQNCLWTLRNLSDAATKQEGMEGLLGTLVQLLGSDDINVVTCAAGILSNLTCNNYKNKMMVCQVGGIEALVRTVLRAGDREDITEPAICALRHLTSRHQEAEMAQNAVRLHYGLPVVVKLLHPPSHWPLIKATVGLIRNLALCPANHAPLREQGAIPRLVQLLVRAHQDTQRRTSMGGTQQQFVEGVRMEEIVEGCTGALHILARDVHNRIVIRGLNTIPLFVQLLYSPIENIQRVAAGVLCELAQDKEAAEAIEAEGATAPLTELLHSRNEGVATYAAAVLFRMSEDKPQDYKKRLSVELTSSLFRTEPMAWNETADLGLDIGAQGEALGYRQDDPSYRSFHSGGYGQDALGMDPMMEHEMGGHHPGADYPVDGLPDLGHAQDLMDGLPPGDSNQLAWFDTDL
# Tcf4 (Tcf7l2), [Apc]ko-TOTAL liver nuclear extract + beta-catenin, [Apc]ko-TOTAL liver nuclear extract, one chain, as listed by the source, chain 1 of 2: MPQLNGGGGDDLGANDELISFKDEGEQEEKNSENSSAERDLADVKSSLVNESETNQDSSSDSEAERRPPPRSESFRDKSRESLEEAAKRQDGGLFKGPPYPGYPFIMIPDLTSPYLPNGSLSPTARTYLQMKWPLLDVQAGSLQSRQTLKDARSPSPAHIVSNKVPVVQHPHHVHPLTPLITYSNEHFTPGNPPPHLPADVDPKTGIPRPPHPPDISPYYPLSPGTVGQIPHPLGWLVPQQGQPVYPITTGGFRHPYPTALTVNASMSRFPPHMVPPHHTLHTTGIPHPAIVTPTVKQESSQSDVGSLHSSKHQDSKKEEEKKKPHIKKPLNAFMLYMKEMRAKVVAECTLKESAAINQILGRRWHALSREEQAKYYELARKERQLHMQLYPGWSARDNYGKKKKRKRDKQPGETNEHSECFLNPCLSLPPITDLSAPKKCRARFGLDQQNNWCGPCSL
# Experiments:
# [1] = test system: Tcf4 (Tcf7l2), [Apc]ko-TOTAL liver nuclear extract + beta-catenin, [Apc]ko-TOTAL liver nuclear extract; test: competition with a labelled probe; settings: EMSA with liver nuclear extracts and 32P probes as in Bobard et al., 2005, pH and temperature not given, protein in an extract
# [2] = biological target: Tcf4 (Tcf7l2), WT liver nuclear extract (Mus musculus) (UniProt Q924A0); test: EMSA; settings: WT liver nuclear extract; EMSA with liver nuclear extracts and 32P probes as in Bobard et al., 2005; pH and temperature not given; protein in an extract; label: 32P
# [3] = test system: Tcf4 (Tcf7l2), [Apc]ko-TOTAL liver nuclear extract + beta-catenin, [Apc]ko-TOTAL liver nuclear extract; test: EMSA; settings: EMSA with liver nuclear extracts and 32P probes as in Bobard et al., 2005, pH and temperature not given, protein in an extract, label: 32P
sequence,measurement,setting,value
GCCCGGCTGACCTCTTGACCCCTCTGGGCTTGAG (double strand) [DR2 cold competitor (HNF4)],binding result,[1]; cold DR2 (HNF4) against 32P-WRE,binds
CATCCCCCTTTGATCTTACC (double strand) [WRE cold competitor],binding result,[1]; cold WRE against 32P-DR2,binds
"GCCCGGCTGACCTCTTGACCCCTCTGGGCTTGAG (double strand) [Epo-3'E HRE (DR2), HNF4-responsive element]",binding result,[2],binds more weakly
same,binding result,"[3]; [Apc]ko-TOTAL liver nuclear extract, stronger binding, supershift from beta-catenin",binds
CATCCCCCTTTGATCTTACC (double strand) [Wnt-responsive element (WRE)],binding result,[3],binds

# Construct, isoform or probe ends are uncertain for at least one entry. Where cells or extracts were used, other partners may take part. For some assays here: The comparison behind a weaker result is the experiment's own reference, which may not be listed here.
